The experiment in a line: qHTS Assay for Lipid Storage Modulators in Drosophila S3 Cells.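 For cell number change: cells counted by Cell Tracker Red CMTPX staining in the red channel.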 Conditions: BODIPY lipid droplet fluorescence, 18-24 h; for cell number change: measured here: cell count max response, cells fed with added oleic acid. The essentials: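 Drosophila S3 cells loaded with oleic acid (400 uM, as added) and compounds at several concentrations; lipid droplets imaged by 488-nm laser-scanning cytometry, 500–530 nm intensity and object ratio to cell channel. Percent activity normalized to 20 uM Triacsin C.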

The mark [1] stands for this setting: measured here: cell number channel AC50, cells fed with added oleic acid.
Setting [2] is: measured here: lipid fluorescence (Fed channel) AC50, cells fed with added oleic acid.

From PubChem BioAssay AID2685 (National Center for Advancing Translational Sciences (NCATS), 2010) come the findings set out here.

This is one part of the list. These are further read-outs of the screen, such as a control signal, another cell line or another target. No call is given for them. The list favours compounds with an active or inconclusive main result. Words in brackets tell the shape of the fitted curve; partial curves, single points and poor fits give uncertain potencies.

Regarding `CC1=C(C#N)C2(O)C(=O)c3ccccc3C2(O)N1` (stereo unspecified), the cell number change was -46.1%. Moreover, the AC50 (as a rule, the concentration at which the activity in the assay is half-maximal) under setting [1] was 0.082 µM [falling, full curve, poor fit].

Turning to `O=C(c1nnsc1S(=O)c1ccc(Cl)cc1)N1CCOCC1` (stereo unspecified), the cell number change was -48%. Moreover, the AC50 under setting [1] was 0.411 µM [falling, full curve]. Also, under setting [2], the AC50 is 18.4 µM [falling, partial curve].

In the case of `CCOC(=O)c1c(-c2ncc(C(F)(F)F)cc2Cl)noc1C`, the cell number change is -1.51%. Further, the AC50 under setting [1] was 3.66 µM [falling, single point]. For the same compound, the AC50 under setting [2] is 5.8 µM [falling, partial curve].

In the case of `Cc1cc(OCC(=O)NC2CCCCC2)ccc1Cl`, the cell number change was found to be 34.3%. The AC50 under setting [1] was 16.4 µM [rising, single point]. The AC50 under setting [2] is 16.4 µM [rising, single point].

Take `COc1cccc(NC(=O)[C@@H]2CCCN2S(=O)(=O)c2cccc3cccnc23)c1`: the cell number change came to 13.7%. For the same compound, the AC50 under setting [2] was 4.61 µM [rising, single point].

With `Cc1cccc(NCc2ccc([N+](=O)[O-])s2)c1`, the cell number change is 10.5%. Besides, under setting [2], the AC50 is 20.6 µM [rising, single point].

For `COc1ccc(-c2ccc(/C=N/NC(=O)Cc3nnc(N)s3)o2)cc1Cl`, the cell number change was 12.5%. Moreover, the AC50 under setting [2] was 6.51 µM [falling, single point].

In the case of `CC(C)[C@H](NC(=O)N1CCn2c1nc1ccccc12)C(=O)N[C@H](C(=O)O)c1ccccc1`, the cell number change was -3.88%. For the same compound, the AC50 under setting [2] was 1.16 µM [falling, full curve].

Take `COc1cc2nc(N(CCN(C)C)C(=O)c3ccc4ccccc4c3)sc2cc1OC`: the cell number change is 179%. Besides, under setting [1], the AC50 was 23.1 µM [rising, single point]. Under setting [2], the AC50 was 29.1 µM [falling, single point].

Consider `CC1CCCC(NC(=O)CN2C(=O)NC(C)(c3ccccc3)C2=O)C1C` (stereo unspecified), for which the cell number change is 14%.

On to `N/C(COc1ncn(-c2ccccc2)n1)=N\S(=O)(=O)c1ccccc1`, for which the cell number change was -2.87%. Moreover, under setting [1], the AC50 was 0.731 µM [rising, partial curve, poor fit]. Besides, the AC50 under setting [2] was 0.731 µM [rising, partial curve, poor fit].

In the case of `O=C(COC(=O)c1n[nH]c(=O)c2ccccc12)NC1CCCCC1`, the cell number change stood at 32.1%. The AC50 under setting [1] is 0.0206 µM [rising, full curve, poor fit]. Moreover, the AC50 under setting [2] is 0.0366 µM [rising, full curve, poor fit].

With `CCCCN(C(=O)c1cccc(S(=O)(=O)N2CCN(C)CC2)c1)c1c(N)n(CC(C)C)c(=O)[nH]c1=O`, under setting [1], the AC50 is 6.51 µM [falling, single point].

In the case of `O=c1[nH]nc(Cc2ccccn2)c2ccccc12`, the cell number change was 3.89%.

As for `CCOC(=O)C1=C(C)N(C)C(C)=C(C(=O)OCC)C1c1ccccc1`, the cell number change was found to be 23.9%. Besides, under setting [2], the AC50 was 25.9 µM [rising, partial curve, poor fit].

As to `O=C(COn1nnc2ccc(S(=O)(=O)N3CCOCC3)cc21)Nc1c(F)c(F)c(F)c(F)c1F`, under setting [2], the AC50 was 0.58 µM [falling, single point].

On to `CC1(C)O[C@H]2OC([C@H](O)CON3C(=O)c4ccccc4C3=O)[C@H](O)[C@H]2O1` (stereo partly specified), for which the cell number change came to 0.171%. For the same compound, the AC50 under setting [2] is 0.731 µM [falling, full curve, poor fit].

For the compound `O=C(Nc1cccc(F)c1)C1CCCN(S(=O)(=O)c2cccc3cccnc23)C1` (stereo unspecified), the cell number change was -17.5%. Under setting [2], the AC50 is 29.1 µM [falling, single point].

`O=C(Cc1ccc([N+](=O)[O-])cc1)Nc1nnc(C2CC2)s1`: the cell number change is -3.22%. In addition, the AC50 under setting [2] is 8.2 µM [rising, partial curve, poor fit].

`Cc1ccccc1C(=O)Oc1ccccc1N1C(=O)C2CC=CCC2C1=O` (stereo unspecified): the cell number change came to 61.1%. Besides, the AC50 under setting [1] was 16.4 µM [rising, single point].

On to `COc1cc(C(C)=O)ccc1OCC(=O)OCC(=O)c1cc(C)n(CC2CCCO2)c1C` (stereo unspecified), for which the cell number change was 13.2%. Besides, the concentration at half-maximal activity (AC50) under setting [2] was 5.8 µM [rising, partial curve, poor fit].

As for `Cc1ccc(C(=O)N2CC(C)OC(C)C2)c(Cl)c1` (stereo unspecified), the cell number change was -110%. Also, under setting [1], the AC50 was 16.4 µM [falling, partial curve].

For the compound `CN(c1ccc(C(=O)NCc2cccnc2)cc1)S(=O)(=O)c1ccc(Cl)cc1`, the cell number change was determined as 12.3%. Also, under setting [1], the AC50 was 2.91 µM [rising, partial curve].

As to `CCn1c(=O)c(=O)n(CC)c2cc(S(=O)(=O)N3CCc4ccccc43)ccc21`, the cell number change came to 0.368%. The AC50 under setting [2] is 0.103 µM [falling, full curve, poor fit].

In the case of `CCOC(=O)c1c(NC(=O)c2cccs2)sc2c1CCCC2`, the cell number change was determined as 56.7%. For the same compound, the AC50 under setting [1] was 5.8 µM [rising, full curve]. In addition, the AC50 under setting [2] was 0.58 µM [rising, single point].

With `CCOc1ccc2cc(S(=O)(=O)n3ccnc3C)ccc2c1`, the cell number change was -8.98%. Under setting [2], the AC50 is 0.103 µM [falling, full curve].

Consider `C(=N\Nc1nc2ccccc2[nH]1)/c1ccc2c(c1)OCCO2`, for which the cell number change was -65.3%. The AC50 under setting [1] was 29.1 µM [falling, partial curve].

On to `C=CCN1c2ccccc2[C@]23C[C@@H](C(=O)OC)N(C(=O)CC(C)C)C2=NC(C(=O)OC)=C(C(=O)OC)[C@H]13`, for which the cell number change was -47.1%. Moreover, the AC50 under setting [1] is 7.31 µM [falling, partial curve]. Further, the AC50 under setting [2] is 6.51 µM [falling, full curve].

`Cc1ccc(N(CC(=O)NC2CCCCC2)C(=O)Cn2nnc(-c3ccc(C)o3)n2)cc1`: the cell number change is 12.3%. Under setting [2], the AC50 was 29.1 µM [rising, single point].

Turning to `COc1ccc(N(CC(=O)NCc2ccco2)C(=O)CCC(=O)Nc2nccs2)c(OC)c1`, the cell number change came to 16.5%. For the same compound, the AC50 under setting [1] was 0.206 µM [rising, full curve, poor fit].

On to `COCCCN1C(=O)C(=O)/C(=C(/O)c2ccc(OC(C)C)cc2)C1c1ccncc1` (stereo unspecified), for which the cell number change is -3.14%. Also, the AC50 under setting [2] was 0.517 µM [rising, full curve, poor fit].

For `O=C(c1ccco1)N1CCN(C2CCCC2)CC1`, the cell number change was -18.6%. Also, the AC50 under setting [2] was 1.46 µM [falling, full curve].

As to `O=C(c1cccc(N2C(=O)C3C4C=CC(C4)C3C2=O)c1)N1CCN(c2ccc(F)cc2)CC1` (stereo unspecified), the AC50 under setting [2] is 6.51 µM [rising, partial curve, poor fit].

As to `O=C(NC(=S)Nc1nc(-c2cccc([N+](=O)[O-])c2)cs1)c1ccccc1Cl`, the cell number change is -34.5%. Moreover, the AC50 under setting [1] was 29.1 µM [falling, single point]. Further, the AC50 under setting [2] is 29.1 µM [falling, single point].

As for `N#Cc1cccc(Cn2nnc(-c3ccccc3)n2)c1`, the cell number change was -9.51%. Besides, the AC50 under setting [2] is 32.6 µM [rising, single point].

As for `O=C(CSc1ncn[nH]1)c1cc2ccccc2o1`, the AC50 is 0.00461 µM [falling, full curve, poor fit] under setting [1] and 5.8 µM [falling, single point] under setting [2].

Turning to `CCN(CC)C(=O)NC1CC2CCCC(C1)N2Cc1ccccc1` (stereo unspecified), the cell number change was -19.3%. Under setting [2], the AC50 is 0.82 µM [falling, full curve, poor fit].

In the case of `Nc1nc(SCC(=O)c2cccc([N+](=O)[O-])c2)n[nH]1`, the cell number change was 23.1%. Moreover, the AC50 under setting [2] is 10.3 µM [rising, partial curve].

Take `Cc1[nH][nH]c(=O)c1C`: the cell number change was 20.2%. The AC50 under setting [1] was 0.146 µM [rising, full curve, poor fit]. For the same compound, the AC50 under setting [2] is 23.1 µM [rising, single point].

Regarding `C=CCn1c(NC(=O)c2ccccc2)nc2ccccc21`, the cell number change was -45.5%. Besides, the AC50 under setting [1] was 20.6 µM [falling, single point].

With `COc1ccc(N=C2C(=O)N3c4c(cccc42)C(C)=CC3(C)C)cc1`, the cell number change is -32.8%. For the same compound, the AC50 under setting [1] was 10.3 µM [falling, partial curve, poor fit]. Under setting [2], the AC50 is 13 µM [falling, single point].

In the case of `CC(=O)Nc1ccc(NC(=O)C(C)OC(=O)c2cccc(S(=O)(=O)N3CCCC3)c2)cc1` (stereo unspecified), the cell number change is -10.9%. The AC50 under setting [2] was 11.6 µM [falling, single point].

As to `Cc1cc(C)c(S(C)(=O)=O)c(S(=O)(=O)c2ccc(Cl)cc2)n1`, the cell number change was 7.47%. Moreover, the AC50 under setting [2] was 0.731 µM [rising, full curve, poor fit].

Take `c1ccc(CCNc2ncnc3c2nnn3Cc2ccccc2)cc1`: the cell number change is 103%. The AC50 under setting [1] is 7.31 µM [rising, partial curve]. The AC50 under setting [2] is 2.06 µM [rising, partial curve].

Take `O=C(CNC(=O)c1ccccc1)OCc1cc(=O)n2cc(Br)ccc2n1`: the cell number change was 20%. The AC50 under setting [2] was 1.03 µM [rising, full curve, poor fit].

As to `CCCOc1ccc(C2c3c(oc4ccccc4c3=O)C(=O)N2CCN(CC)CC)cc1OC` (stereo unspecified), the cell number change is 36.6%. The AC50 under setting [1] was 2.06 µM [rising, full curve].

For the compound `CCCCN(C(=O)CC1CCCCC1)c1c(N)n(CC(C)C)c(=O)[nH]c1=O`, the cell number change was -37%. The AC50 under setting [1] is 16.4 µM [falling, single point]. Further, under setting [2], the AC50 is 18.4 µM [falling, single point].

On to `CCN(CC)C(=O)c1c[nH]c2ccc(S(=O)(=O)Nc3cc(C)cc(C)c3)cc2c1=O`, for which the cell number change was determined as 4.26%. The half-maximal activity concentration (AC50) under setting [2] is 6.51 µM [falling, single point].

`CCOc1ccccc1NC(=O)CCC(=O)Nc1ccc2nc(N3CCN(C)CC3)cc(C)c2c1`: the cell number change is -45.2%. Under setting [1], the AC50 was 10.3 µM [falling, partial curve]. The AC50 under setting [2] was 9.2 µM [falling, partial curve].

For the compound `CCOC(=O)C1CCCN(C/C=C/c2ccccc2[N+](=O)[O-])C1` (stereo unspecified), the cell number change is -15.6%. Besides, under setting [2], the AC50 is 6.51 µM [falling, full curve, poor fit].

In the case of `CN(CCC#N)C(=O)COC(=O)c1cccnc1Nc1ccccc1F`, the cell number change was found to be 59%. Further, under setting [1], the AC50 was 29.1 µM [rising, single point].

Take `CCN(C(=O)CN1CCN(S(=O)(=O)c2cc(Cl)ccc2Cl)CC1)c1c(N)n(Cc2ccccc2)c(=O)[nH]c1=O`: the cell number change was -3.27%. Under setting [2], the AC50 was 0.92 µM [falling, full curve].

Regarding `CC(C)(C)S(=O)(=O)/C(C#N)=N/Nc1ccc(S(N)(=O)=O)cc1`, the cell number change is -7.19%. Also, the AC50 under setting [1] was 0.731 µM [rising, single point]. The AC50 under setting [2] is 0.58 µM [rising, partial curve, poor fit].
